# Results as given in the supplement of paper PMC10849652.
# Protein sequences, listed by entry. Tags and fused reporters are not part of them. Lines headed by an entry give the natural chain unless they say otherwise; changes in a name come on top.
# UniProt O14796: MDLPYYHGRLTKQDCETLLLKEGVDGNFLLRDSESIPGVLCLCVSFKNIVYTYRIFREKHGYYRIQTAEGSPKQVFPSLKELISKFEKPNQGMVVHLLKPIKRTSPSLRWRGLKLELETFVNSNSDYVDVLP
# UniProt Q8IUQ4: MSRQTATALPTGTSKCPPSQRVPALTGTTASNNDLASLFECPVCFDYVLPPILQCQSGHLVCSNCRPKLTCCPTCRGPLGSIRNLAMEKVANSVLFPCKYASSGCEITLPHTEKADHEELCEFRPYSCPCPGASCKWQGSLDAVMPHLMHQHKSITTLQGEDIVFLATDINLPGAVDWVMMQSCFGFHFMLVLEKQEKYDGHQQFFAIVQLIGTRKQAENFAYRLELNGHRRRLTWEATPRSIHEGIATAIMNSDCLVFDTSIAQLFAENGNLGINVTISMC
# UniProt Q9Y6P5: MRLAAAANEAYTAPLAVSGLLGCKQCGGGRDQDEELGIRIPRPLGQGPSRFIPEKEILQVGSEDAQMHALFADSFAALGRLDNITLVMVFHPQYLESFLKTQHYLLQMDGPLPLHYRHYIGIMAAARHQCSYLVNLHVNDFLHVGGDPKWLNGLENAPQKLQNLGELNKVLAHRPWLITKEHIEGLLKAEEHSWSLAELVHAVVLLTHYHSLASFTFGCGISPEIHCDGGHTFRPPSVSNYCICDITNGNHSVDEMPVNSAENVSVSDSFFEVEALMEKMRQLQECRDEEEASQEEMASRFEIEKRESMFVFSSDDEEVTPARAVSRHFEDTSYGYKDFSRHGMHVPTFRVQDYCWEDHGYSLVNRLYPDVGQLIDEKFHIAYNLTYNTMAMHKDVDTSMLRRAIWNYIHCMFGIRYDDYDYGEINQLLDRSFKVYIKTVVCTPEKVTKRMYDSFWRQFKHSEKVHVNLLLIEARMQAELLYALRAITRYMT
# UniProt P36952: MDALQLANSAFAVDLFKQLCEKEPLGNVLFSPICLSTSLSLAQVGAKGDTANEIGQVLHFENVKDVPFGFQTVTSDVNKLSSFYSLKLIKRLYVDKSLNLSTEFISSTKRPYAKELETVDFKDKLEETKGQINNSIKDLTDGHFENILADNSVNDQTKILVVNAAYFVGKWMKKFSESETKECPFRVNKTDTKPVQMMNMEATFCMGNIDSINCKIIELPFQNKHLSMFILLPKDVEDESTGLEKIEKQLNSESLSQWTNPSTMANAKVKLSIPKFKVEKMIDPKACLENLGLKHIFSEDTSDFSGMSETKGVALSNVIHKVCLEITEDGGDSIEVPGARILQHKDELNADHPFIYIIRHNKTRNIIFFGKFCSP
# UniProt Q8TBK2: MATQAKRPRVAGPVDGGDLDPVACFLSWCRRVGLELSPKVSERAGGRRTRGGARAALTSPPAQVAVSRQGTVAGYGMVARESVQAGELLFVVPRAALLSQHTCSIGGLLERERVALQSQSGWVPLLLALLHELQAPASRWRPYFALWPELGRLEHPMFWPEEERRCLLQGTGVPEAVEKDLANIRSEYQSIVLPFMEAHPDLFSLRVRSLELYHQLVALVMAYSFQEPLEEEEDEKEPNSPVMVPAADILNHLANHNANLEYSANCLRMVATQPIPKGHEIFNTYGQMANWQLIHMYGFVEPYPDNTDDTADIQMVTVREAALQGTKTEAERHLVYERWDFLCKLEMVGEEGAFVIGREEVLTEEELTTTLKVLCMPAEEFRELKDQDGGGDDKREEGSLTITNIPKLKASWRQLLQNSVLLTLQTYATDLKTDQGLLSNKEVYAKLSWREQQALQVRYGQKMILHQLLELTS
# UniProt Q8NDZ2: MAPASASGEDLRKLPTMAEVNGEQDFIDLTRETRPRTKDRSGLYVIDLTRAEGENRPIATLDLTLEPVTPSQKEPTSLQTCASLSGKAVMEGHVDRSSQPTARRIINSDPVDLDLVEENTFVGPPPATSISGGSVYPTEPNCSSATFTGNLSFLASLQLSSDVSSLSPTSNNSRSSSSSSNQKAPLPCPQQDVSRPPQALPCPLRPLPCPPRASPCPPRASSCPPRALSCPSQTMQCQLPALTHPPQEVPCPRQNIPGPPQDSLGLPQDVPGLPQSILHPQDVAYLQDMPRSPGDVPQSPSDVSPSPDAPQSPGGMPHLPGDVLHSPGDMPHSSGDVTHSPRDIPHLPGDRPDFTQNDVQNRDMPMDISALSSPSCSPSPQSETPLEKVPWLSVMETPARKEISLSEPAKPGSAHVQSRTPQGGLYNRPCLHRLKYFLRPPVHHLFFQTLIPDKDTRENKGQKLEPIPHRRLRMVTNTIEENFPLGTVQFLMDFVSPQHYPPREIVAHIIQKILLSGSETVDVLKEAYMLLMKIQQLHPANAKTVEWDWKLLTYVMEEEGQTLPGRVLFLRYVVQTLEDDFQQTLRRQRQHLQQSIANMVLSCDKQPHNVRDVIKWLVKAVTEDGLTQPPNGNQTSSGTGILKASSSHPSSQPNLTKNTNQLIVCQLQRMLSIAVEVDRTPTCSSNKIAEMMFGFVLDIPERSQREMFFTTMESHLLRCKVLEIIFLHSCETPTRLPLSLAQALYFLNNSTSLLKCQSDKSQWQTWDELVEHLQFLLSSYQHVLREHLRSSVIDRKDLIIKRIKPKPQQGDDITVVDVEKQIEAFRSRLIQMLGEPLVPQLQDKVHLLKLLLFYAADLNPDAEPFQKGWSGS
# UniProt Q96JX3: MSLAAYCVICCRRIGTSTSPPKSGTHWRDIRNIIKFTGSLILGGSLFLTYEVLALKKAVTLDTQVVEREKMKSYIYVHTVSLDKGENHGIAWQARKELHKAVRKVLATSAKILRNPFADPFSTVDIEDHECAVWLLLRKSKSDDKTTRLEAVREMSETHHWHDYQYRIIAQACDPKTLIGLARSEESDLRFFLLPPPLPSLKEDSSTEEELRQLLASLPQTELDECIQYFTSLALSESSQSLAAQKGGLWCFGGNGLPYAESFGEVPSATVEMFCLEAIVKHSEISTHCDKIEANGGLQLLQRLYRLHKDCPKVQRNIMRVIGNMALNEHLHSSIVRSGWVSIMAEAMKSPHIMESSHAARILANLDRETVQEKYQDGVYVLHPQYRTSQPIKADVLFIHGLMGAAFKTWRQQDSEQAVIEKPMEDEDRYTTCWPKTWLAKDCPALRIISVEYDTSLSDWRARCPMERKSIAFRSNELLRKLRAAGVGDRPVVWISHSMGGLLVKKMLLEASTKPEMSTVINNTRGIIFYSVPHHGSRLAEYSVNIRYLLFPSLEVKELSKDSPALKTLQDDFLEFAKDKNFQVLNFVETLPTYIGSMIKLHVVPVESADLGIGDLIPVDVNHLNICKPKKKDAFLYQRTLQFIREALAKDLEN
# UniProt O60779: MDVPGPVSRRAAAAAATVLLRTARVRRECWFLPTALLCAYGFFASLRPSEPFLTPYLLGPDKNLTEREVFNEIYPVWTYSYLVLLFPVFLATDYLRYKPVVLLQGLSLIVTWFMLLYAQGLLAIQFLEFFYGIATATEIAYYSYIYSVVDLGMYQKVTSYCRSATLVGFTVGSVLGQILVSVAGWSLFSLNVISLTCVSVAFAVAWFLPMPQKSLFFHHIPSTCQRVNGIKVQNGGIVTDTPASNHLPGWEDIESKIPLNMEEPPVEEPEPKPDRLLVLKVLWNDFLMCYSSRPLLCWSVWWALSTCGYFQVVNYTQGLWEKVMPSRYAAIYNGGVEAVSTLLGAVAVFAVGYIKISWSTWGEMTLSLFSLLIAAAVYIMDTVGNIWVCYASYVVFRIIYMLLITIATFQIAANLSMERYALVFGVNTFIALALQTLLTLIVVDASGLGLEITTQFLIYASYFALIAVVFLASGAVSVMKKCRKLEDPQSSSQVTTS
# UniProt P08697: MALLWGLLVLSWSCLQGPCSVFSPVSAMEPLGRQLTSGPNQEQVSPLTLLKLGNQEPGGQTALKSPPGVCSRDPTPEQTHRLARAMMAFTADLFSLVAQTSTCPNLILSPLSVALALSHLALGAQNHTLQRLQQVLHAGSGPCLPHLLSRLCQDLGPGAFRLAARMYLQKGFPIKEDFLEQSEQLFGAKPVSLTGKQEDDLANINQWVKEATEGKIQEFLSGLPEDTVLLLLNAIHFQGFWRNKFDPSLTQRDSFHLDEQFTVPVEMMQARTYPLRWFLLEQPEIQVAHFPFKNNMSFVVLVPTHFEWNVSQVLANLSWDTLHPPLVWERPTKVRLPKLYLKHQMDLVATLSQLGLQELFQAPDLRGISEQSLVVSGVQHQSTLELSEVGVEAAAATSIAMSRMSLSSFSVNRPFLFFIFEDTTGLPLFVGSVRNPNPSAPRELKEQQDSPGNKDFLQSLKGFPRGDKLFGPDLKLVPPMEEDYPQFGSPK
# UniProt Q587I9: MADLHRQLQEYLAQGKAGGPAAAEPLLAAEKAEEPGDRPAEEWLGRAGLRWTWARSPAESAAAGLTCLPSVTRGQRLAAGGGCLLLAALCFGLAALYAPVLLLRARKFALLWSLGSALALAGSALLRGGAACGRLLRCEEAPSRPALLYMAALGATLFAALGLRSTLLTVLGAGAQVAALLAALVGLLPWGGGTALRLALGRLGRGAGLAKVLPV
# UniProt Q6PI26: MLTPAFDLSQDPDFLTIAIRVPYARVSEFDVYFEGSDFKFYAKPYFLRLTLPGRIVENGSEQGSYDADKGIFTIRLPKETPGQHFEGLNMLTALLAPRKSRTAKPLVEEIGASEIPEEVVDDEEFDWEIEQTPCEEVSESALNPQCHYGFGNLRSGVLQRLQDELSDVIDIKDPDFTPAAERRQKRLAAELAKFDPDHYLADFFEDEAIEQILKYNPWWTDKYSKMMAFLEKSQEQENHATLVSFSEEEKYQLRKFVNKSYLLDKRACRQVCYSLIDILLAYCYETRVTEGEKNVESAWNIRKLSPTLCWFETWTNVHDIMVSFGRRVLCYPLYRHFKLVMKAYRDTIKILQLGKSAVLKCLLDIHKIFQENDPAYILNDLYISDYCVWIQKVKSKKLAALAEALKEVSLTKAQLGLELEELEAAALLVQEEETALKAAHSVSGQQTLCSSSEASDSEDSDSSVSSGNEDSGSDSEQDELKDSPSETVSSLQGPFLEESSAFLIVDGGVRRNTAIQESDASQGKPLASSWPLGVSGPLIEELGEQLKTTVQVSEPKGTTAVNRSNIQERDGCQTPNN
# UniProt Q86VW0: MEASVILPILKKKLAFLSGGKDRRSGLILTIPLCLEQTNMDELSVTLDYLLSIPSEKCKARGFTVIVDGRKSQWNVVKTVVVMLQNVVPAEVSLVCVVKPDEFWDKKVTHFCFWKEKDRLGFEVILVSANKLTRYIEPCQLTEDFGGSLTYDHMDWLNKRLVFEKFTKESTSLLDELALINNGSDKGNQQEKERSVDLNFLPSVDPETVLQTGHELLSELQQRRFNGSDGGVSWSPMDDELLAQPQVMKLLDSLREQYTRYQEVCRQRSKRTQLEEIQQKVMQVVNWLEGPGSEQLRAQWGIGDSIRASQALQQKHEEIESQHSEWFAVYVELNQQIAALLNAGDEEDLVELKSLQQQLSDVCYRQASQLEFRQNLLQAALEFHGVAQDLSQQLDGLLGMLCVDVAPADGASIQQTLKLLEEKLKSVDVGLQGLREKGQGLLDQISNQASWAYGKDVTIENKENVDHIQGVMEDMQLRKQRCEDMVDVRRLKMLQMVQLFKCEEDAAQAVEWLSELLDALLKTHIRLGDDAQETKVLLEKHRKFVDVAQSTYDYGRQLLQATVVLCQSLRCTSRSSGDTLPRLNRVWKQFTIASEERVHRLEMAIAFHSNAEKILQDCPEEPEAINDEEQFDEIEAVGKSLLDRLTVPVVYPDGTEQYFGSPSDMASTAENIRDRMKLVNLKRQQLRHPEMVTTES
# This is one part of the list.
# Key:
# Assay in all cases: log2 fold change, soluble protein after heating vs DMSO (PISA); higher = thermal stabilisation; K562 lysate, 10 uM; active = over 0.2 and 3.5 SD of the protein, either way, in both replicates (recomputed)
# [1] = compound: c1cn2cc(-c3ccc4cn[nH]c4c3)nc(Nc3ccc(N4CCOCC4)cc3)c2n1 [entospletinib]
# Summary of the method: (§1)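 Pellets of K562 cells were dounce-homogenised in PBS pH 7.4 with 1 mM MgCl2, and the crude extract was held at 1 mg/mL protein for a 30 min treatment with 10 μM compound. Aliquots were heated for 3 min over 48°C-58°C and pooled before NP-40 was added to 0.5% at 4°C. The supernatant from 21,000xg for 90 min was quantified by TMTpro 16plex LC-MS/MS with channel sums equalised. Values are reported from duplicates as log-two fold change in thermal stability relative to solvent controls.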
# [2] = compound: NCC(=O)Nc1ccc(-n2nc(C(F)(F)F)cc2-c2ccc3c(ccc4ccccc43)c2)cc1
# Summary of the method: as §1
# [3] = compound: O=C1NC(=O)C(c2cnc3ccccn23)=C1c1cn2c3c(cc(F)cc13)CN(C(=O)N1CCCCC1)CC2
# Summary of the method: as §1
# [4] = compound: O=C(CCCCCCC(=O)Nc1ccccc1)NO [vorinostat]
# Summary of the method: as §1
# [5] = compound: O=C(O)c1ccc2c(c1)nc(Nc1cccc(Cl)c1)c1ccncc12 [silmitasertib]
# Summary of the method: as §1
target,measurement,setting,value
SHLD1 (UniProt Q8IYI0),log2 fold change,[1],inactive: -0.049
SERPINA7 (UniProt P05543),log2 fold change,[2],inactive: 0.075
same,log2 fold change,[1],inactive: -0.062
SH2D1B (UniProt O14796),log2 fold change,[2],inactive: -0.007
same,log2 fold change,[3],inactive: -0.029
same,log2 fold change,[1],inactive: 0.032
SLC10A4 (UniProt Q96EP9),log2 fold change,[4],inactive: -0.29
same,log2 fold change,[5],inactive: 0.164
SIX4 (UniProt Q9UIU6),log2 fold change,[4],inactive: 0.038
same,log2 fold change,[5],inactive: 0.017
same,log2 fold change,[1],inactive: -0.054
SIAH1 isoform 2 (UniProt Q8IUQ4),log2 fold change,[4],inactive: -0.032
same,log2 fold change,[5],inactive: -0.042
same,log2 fold change,[3],inactive: 0.065
SERPINA12 (UniProt Q8IW75),log2 fold change,[4],inactive: 0.495
same,log2 fold change,[5],inactive: -0.307
same,log2 fold change,[3],inactive: 0.471
SH2B1 (UniProt Q9NRF2),log2 fold change,[4],inactive: -0.146
same,log2 fold change,[5],inactive: 0.021
same,log2 fold change,[3],inactive: -0.031
SLC10A3 (UniProt P09131),log2 fold change,[2],inactive: -0.177
same,log2 fold change,[1],inactive: -0.046
SERPINB7 (UniProt O75635),log2 fold change,[3],inactive: 0.437
SESN1 isoform 2 (UniProt Q9Y6P5),log2 fold change,[4],inactive: -0.38
same,log2 fold change,[5],inactive: -0.018
same,log2 fold change,[3],inactive: 0.067
same,log2 fold change,[1],inactive: -0.128
SERPINB5 (UniProt P36952),log2 fold change,[4],inactive: 0.005
same,log2 fold change,[5],inactive: -0.38
same,log2 fold change,[3],inactive: 0.316
SETD6 (UniProt Q8TBK2),log2 fold change,[4],inactive: 0.189
same,log2 fold change,[5],inactive: 0.036
SIK2 (UniProt Q9H0K1),log2 fold change,[1],inactive: 0.097
SIMC1 (UniProt Q8NDZ2),log2 fold change,[2],inactive: -0.141
same,log2 fold change,[3],inactive: 0.242
same,log2 fold change,[1],inactive: 0.417
SFT2D1 (UniProt Q8WV19),log2 fold change,[3],inactive: -0.025
SERAC1 (UniProt Q96JX3),log2 fold change,[4],inactive: 0.236
same,log2 fold change,[5],inactive: 0.155
same,log2 fold change,[1],inactive: -0.001
SET isoform 3 (UniProt Q01105),log2 fold change,[1],inactive: -0.194
SLC19A2 (UniProt O60779),log2 fold change,[1],inactive: -0.01
SERPINF2 (UniProt P08697),log2 fold change,[2],inactive: 0.103
same,log2 fold change,[3],inactive: 0.108
same,log2 fold change,[1],inactive: -0.048
SFT2D3 (UniProt Q587I9),log2 fold change,[4],inactive: 0.154
same,log2 fold change,[5],inactive: -0.054
same,log2 fold change,[3],inactive: -0.03
same,log2 fold change,[1],inactive: 0.076
SHQ1 (UniProt Q6PI26),log2 fold change,[4],inactive: 0.124
same,log2 fold change,[5],inactive: -0.048
same,log2 fold change,[3],inactive: -0.038
SGO2 (UniProt Q562F6),log2 fold change,[3],inactive: 0.009
same,log2 fold change,[1],inactive: 0.01
SESTD1 (UniProt Q86VW0),log2 fold change,[3],inactive: -0.109

# Part of the list above, with bars between the fields.
target | measurement | setting | value
SERPINB7 (UniProt O75635) | log2 fold change | [3] | inactive: 0.437
SESN1 isoform 2 (UniProt Q9Y6P5) | log2 fold change | [4] | inactive: -0.38
same | log2 fold change | [5] | inactive: -0.018
same | log2 fold change | [3] | inactive: 0.067
same | log2 fold change | [1] | inactive: -0.128
